Some results were stated once for a whole list of compounds, not compound by compound. At least one compound was matched to its structure with a doubt left.
Tested on: soybean rust fungus (Phakopsora pachyrhizi) having an amino acid substitution of F129L on mitochondrial cytochrome b protein
Assay: Test Example 1: soybean leaf disk test, lesion area of soybean rust disease
Assay type: in vivo
Details: 50 ppm; sprayed on soybean leaf disk (cv Kurosengoku) 1 day before inoculation; assessed after 10 to 14 days

Compound | lesion area of the leaf disk relative to the lesion area of the untreated leaf disk [%]
CO/C=C(/C(=O)OC)c1ccc(Cl)cc1C#CCC1CCCC1 [compound 207] | ≤ 30
CCc1ccc(/C(=C\OC)C(=O)OC)c(/C=C/C2CC2)c1 [compound 11] | ≤ 30
CO/C=C(/C(=O)OC)c1ccc(OC)cc1C#CCC(C)C [compound 214] | ≤ 30
CO/C=C(/C(=O)OC)c1ccccc1COc1ccn(-c2ccc(Cl)cc2)n1 [compound 222] | ≤ 30
CO/C=C(/C(=O)OC)c1ccc(Cl)cc1C#CCC(C)C [compound 202] | ≤ 30
CO/C=C(/C(=O)OC)c1ccccc1/C=C/C1CC1C (centres unmarked) [compound 3] | ≤ 30
CO/C=C(/C(=O)OC)c1c(C)cccc1CO/N=C(\C)c1ccc(Cl)cc1 [compound 391] | ≤ 30
CO/C=C(/C(=O)OC)c1ccc(Cl)cc1/C=C/C1CC1(C)C (centres unmarked) [compound 59] | ≤ 30
CCCCC#Cc1cc(Cl)ccc1/C(=C\OC)C(=O)OC [compound 200] | ≤ 30
CNC(=O)/C(=N/OC)c1ccccc1COc1ccn(-c2ccc(Cl)cc2)n1 [compound 294] | ≤ 30
CO/C=C(/C(=O)OC)c1ccccc1/C=C/C1CC1(F)F (centres unmarked) [compound 5] | ≤ 30

Reference: patent US20230102860A1, “METHOD FOR C[…] FUNGICIDE-RESISTANT SOYBEAN RUST FUNGI” (SUMITOMO CHEMICAL COMPANY, LIMITED, priority 2020, published 2023)
